Measured values from article PMC6691574.
These are yes or no findings as the source states them, for the method shown. Binding seen in cells or lysates may run through a third protein. Some results given as binding are weak or reduced against the parent protein; the word gives no strength. Sequences can lack the tags named with a protein.

Amino acid sequences for entries named in this document (tags omitted).
UniProt P16671: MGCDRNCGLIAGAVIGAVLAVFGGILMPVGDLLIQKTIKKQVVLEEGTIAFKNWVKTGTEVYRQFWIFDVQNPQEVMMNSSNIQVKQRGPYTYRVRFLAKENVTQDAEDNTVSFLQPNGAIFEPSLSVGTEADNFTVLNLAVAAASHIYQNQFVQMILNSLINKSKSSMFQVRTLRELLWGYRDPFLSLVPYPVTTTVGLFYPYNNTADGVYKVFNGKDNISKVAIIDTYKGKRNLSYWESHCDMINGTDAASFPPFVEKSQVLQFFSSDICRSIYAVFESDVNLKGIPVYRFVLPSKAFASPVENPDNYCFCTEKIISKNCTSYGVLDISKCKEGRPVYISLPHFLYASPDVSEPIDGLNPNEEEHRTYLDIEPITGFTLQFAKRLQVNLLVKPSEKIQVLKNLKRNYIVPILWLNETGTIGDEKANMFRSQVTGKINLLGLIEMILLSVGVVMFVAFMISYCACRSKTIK

Target: FLAG-tagged CD36 (UniProt P16671)
Experiment: co-IP; total lysates of SGC 7901 cells expressing FLAG-CD36, IP with FLAG antibody, western blotting with the indicated antibodies; Pierce Co-Immunoprecipitation kit

B1: O-linked N-acetylglucosamine transferase (OGT) (enzyme, UniProt O15294 1-1046)
chain: MASSVGNVADSTEPTKRMLSFQGLAELAHREYQAGDFEAAERHCMQLWRQEPDNTGVLLLLSSIHFQCRRLDRSAHFSTLAIKQNPLLAEAYSNLGNVYKERGQLQEAIEHYRHALRLKPDFIDGYINLAAALVAAGDMEGAVQAYVSALQYNPDLYCVRSDLGNLLKALGRLEEAKACYLKAIETQPNFAVAWSNLGCVFNAQGEIWLAIHHFEKAVTLDPNFLDAYINLGNVLKEARIFDRAVAAYLRALSLSPNHAVVHGNLACVYYEQGLIDLAIDTYRRAIELQPHFPDAYCNLANALKEKGSVAEAEDCYNTALRLCPTHADSLNNLANIKREQGNIEEAVRLYRKALEVFPEFAAAHSNLASVLQQQGKLQEALMHYKEAIRISPTFADAYSNMGNTLKEMQDVQGALQCYTRAIQINPAFADAHSNLASIHKDSGNIPEAIASYRTALKLKPDFPDAYCNLAHCLQIVCDWTDYDERMKKLVSIVADQLEKNRLPSVHPHHSMLYPLSHGFRKAIAERHGNLCLDKINVLHKPPYEHPKDLKLSDGRLRVGYVSSDFGNHPTSHLMQSIPGMHNPDKFEVFCYALSPDDGTNFRVKVMAEANHFIDLSQIPCNGKAADRIHQDGIHILVNMNGYTKGARNELFALRPAPIQAMWLGYPGTSGALFMDYIITDQETSPAEVAEQYSEKLAYMPHTFFIGDHANMFPHLKKKAVIDFKSNGHIYDNRIVLNGIDLKAFLDSLPDVKIVKMKCPDGGDNADSSNTALNMPVIPMNTIAEAVIEMINRGQIQITINGFSISNGLATTQINNKAATGEEVPRTIIVTTRSQYGLPEDAIVYCNFNQLYKIDPSTLQMWANILKRVPNSVLWLLRFPAVGEPNIQQYAQNMGLPQNRIIFSPVAPKEEHVRRGQLADVCLDTPLCNGHTTGMDVLWAGTPMVTMPGETLASRVAASQLTCLGCLELIAKNRQEYEDIAVKLGTDLEYLKKVRGKVWKQRISSPLFNTKQYTMELERLYLQMWEHYAAGNKPDHMIKPVEVTESA
In the case of B1, the binding is reported as “binds”.
